Data as given in PubChem BioAssay AID1259254 (NCATS, 2017).
In all, the deposit lists about 59,000 reagents; below is a random part of them. Over the whole deposit, about 1,550 (2.6%) were called active. 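G2 share is only a proxy for re-replication; each gene was hit by three separate siRNAs, and active genes were retested.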 Reagents against one gene are numbered here. Not all columns of the deposit are shown. Not given: the amount of reagent.

Assay: 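Finding genes that stop cells copying their DNA twice in one cycle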 (primary screen)
System: human HCT116 colorectal cancer cells
Knock-down reagent: single siRNA against human genes
Duration: 3 days
Read-out: 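Imaged Hoechst DNA stain sorts each cell into a cycle phase by DNA amount; per plate, G2 fraction set to 0% for non-targeting and 100% for GMNN siRNA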
Scale: G2 robust z-score and G2 cells, % of GMNN control: higher = more G2 cells, more excess DNA replication
Active means: 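An siRNA counts as active if its G2 robust z-score lies at least 5 MADs above the screen median; here such calls match roughly 38% of GMNN control or more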

EFL1 (GeneID 79631) #1 | G2 robust z-score = -0.0673; G2 cells, % of GMNN control = 2.49; call = inactive
EFL1 (GeneID 79631) #2 | G2 robust z-score = -0.151; G2 cells, % of GMNN control = 1.9; call = inactive
EFL1 (GeneID 79631) #3 | G2 robust z-score = 2.76; G2 cells, % of GMNN control = 22.4; call = inactive
PRSS46P (GeneID 100287362) #1 | G2 robust z-score = 0.731; G2 cells, % of GMNN control = 8.11; call = inactive
PRSS46P (GeneID 100287362) #2 | G2 robust z-score = -1.2; G2 cells, % of GMNN control = -5.47; call = inactive
PRSS46P (GeneID 100287362) #3 | G2 robust z-score = -1.06; G2 cells, % of GMNN control = -4.5; call = inactive
CCDC172 (GeneID 374355) #1 | G2 robust z-score = 0.216; G2 cells, % of GMNN control = 4.48; call = inactive
CCDC172 (GeneID 374355) #2 | G2 robust z-score = 0.378; G2 cells, % of GMNN control = 5.63; call = inactive
CCDC172 (GeneID 374355) #3 | G2 robust z-score = -0.471; G2 cells, % of GMNN control = -0.343; call = inactive
FBXL14 (GeneID 144699) #1 | G2 robust z-score = 0.0778; G2 cells, % of GMNN control = 3.51; call = inactive
FBXL14 (GeneID 144699) #2 | G2 robust z-score = -0.731; G2 cells, % of GMNN control = -2.18; call = inactive
FBXL14 (GeneID 144699) #3 | G2 robust z-score = -0.475; G2 cells, % of GMNN control = -0.376; call = inactive
